Assay results published in paper PMC10132691.
Results are given in words; binding and its absence hold for the method and conditions named. In cells and extracts the contact can be indirect. Some results given as binding are weak or reduced against the parent protein; the word gives no strength.

Protein sequences, listed by entry. Tags and fused reporters are not part of them.
UniProt P06241: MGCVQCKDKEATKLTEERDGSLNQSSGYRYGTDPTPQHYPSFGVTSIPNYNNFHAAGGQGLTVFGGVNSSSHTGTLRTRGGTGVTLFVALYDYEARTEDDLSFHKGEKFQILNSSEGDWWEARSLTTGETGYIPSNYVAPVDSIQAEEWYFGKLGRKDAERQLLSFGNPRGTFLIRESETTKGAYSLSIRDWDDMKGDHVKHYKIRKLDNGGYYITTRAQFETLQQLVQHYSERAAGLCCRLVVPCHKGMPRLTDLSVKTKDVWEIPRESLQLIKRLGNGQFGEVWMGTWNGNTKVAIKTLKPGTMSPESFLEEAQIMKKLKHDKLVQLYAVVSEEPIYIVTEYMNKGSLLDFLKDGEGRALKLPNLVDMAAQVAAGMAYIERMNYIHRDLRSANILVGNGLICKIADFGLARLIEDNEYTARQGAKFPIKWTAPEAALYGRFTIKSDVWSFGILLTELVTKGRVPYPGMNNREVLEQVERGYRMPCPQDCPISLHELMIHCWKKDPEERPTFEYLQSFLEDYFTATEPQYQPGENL
UniProt P40763: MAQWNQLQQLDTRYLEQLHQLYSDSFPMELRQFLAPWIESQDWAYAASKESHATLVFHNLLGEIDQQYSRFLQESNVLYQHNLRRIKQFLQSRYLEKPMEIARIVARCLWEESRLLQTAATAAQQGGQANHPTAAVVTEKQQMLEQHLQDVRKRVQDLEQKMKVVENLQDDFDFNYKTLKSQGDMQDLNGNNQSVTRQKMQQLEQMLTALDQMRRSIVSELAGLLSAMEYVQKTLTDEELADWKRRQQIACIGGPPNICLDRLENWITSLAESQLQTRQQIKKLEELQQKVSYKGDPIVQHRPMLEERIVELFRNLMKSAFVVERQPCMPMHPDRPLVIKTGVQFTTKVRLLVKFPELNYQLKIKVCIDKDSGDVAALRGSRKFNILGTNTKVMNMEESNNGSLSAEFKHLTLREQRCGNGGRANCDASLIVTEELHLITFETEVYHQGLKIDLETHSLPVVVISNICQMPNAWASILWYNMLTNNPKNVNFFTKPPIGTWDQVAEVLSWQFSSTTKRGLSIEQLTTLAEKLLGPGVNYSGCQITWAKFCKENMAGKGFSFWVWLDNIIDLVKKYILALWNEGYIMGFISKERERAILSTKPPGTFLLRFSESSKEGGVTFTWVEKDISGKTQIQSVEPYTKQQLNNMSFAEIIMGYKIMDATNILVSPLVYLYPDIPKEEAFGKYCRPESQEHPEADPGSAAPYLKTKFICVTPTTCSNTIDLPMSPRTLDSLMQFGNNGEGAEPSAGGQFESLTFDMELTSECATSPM

Molecular target: tyrosine-protein kinase Fyn (human (endogenous in decidual MDSCs)) (UniProt P06241)
Assay: co-IP; anti-Fyn antibody overnight at 4°C, protein A/G agarose beads; nondenatured lysate of purified human decidual MDSCs infected with T. gondii, with or without anti-Tim-3 mAb or 20 μg/ml rGal-9; Western blot

binding: binds
Substance: phosphorylated STAT3 (from UniProt P40763 1-770)
